From US11845773B2, “Trehalose analogues” (Central Michigan University, priority 2016, dated 2023)
For at least one compound, name, drawing or mass did not settle the structure. Some results were stated once for a whole list of compounds, not compound by compound.

How the values were obtained:
Msmeg [1] = assay: Metabolic labeling of Msmeg with TMM reporters 1-6 (CuAAC, SPAAC, tetrazine ligation or one-step)
Msmeg [2] = assay: Cell-surface reaction kinetics comparison, SPAAC vs. tetrazine ligation
bacteria = assay: Growth inhibition and cell morphology upon treatment with reporters; format: cell-based; conditions: highest tested concentrations

Row | Molecule | localisation of fluorescence in microscopy images (Msmeg [1]) | S/N ratio of cell-surface reaction at 1 min (Msmeg [2]; Msmeg, 25 μM reporter, O-TCO-TMM with tetrazine-Cy3, O-AzTMM-C10 with DBCO-488 (SPAAC), 20 μM each) | S/N ratio of cell-surface reaction with longer time (Msmeg [2]; incubation 1-30 min, SPAAC increased, tetrazine reaction dropped with time) | growth inhibition or altered cell morphology (bacteria)
1 | O=C(CCCCCCCCCNC(=O)OC1CC/C=C/CCC1)OC[C@H]1O[C@H](O[C@H]2O[C@H](CO)[C@@H](O)[C@H](O)[C@H]2O)[C@H](O)[C@@H](O)[C@@H]1O (stereo partly drawn) [O-TCO-TMM, 6-O-(10-{N—[(E)-cylcooct-4-en1yloxy]carbonyl}aminodecanoyl)-α,α-D-trehalose] | cell-surface fluorescence concentrated at the poles and septa of bacteria | > 400:1 | about 300:1 | growth inhibition or altered cell morphology was not oberved
2 | 6-O-(10-undecynoyl)-α,α-D-trehalose [O-AlkTMM-C11] | – | – | – | growth inhibition or altered cell morphology was not oberved
3 | C#CCCC(=O)OCC1O[C@H](O[C@H]2OC(CO)[C@@H](O)C(O)C2O)C(O)C(O)[C@@H]1O (stereo partly drawn) [O-AlkTMM-C5, 6-O-(4-pentynoyl)-α,α-D-trehalose] | – | – | – | growth inhibition or altered cell morphology was not oberved
4 | C#CCCCCC(=O)OCC1O[C@H](O[C@H]2OC(CO)[C@@H](O)C(O)[C@H]2O)C(O)[C@@H](O)[C@@H]1O (stereo partly drawn) [O-AlkTMM, 6-O-(6-heptynoyl)-α,α-D-trehalose] | – | – | – | growth inhibition or altered cell morphology was not oberved
5 | O=C(CCCCCCCCCNC(=S)Nc1ccc2c(c1)C(=O)OC21c2ccc(O)cc2Oc2cc(O)ccc21)OC[C@H]1O[C@H](O[C@H]2O[C@H](CO)[C@@H](O)[C@H](O)[C@H]2O)[C@H](O)[C@@H](O)[C@@H]1O [O-FITC-TMM, 6-O-(10-[(fluorescein-5-yl)thioureido]decanoyl)-α,α-D-trehalose] | cell-surface fluorescence concentrated at the poles and septa of bacteria | – | – | growth inhibition or altered cell morphology was not oberved
6 | [N-]=[N+]=NCCCCCCCCCC(=O)OCC1O[C@H](O[C@H]2OC(CO)[C@@H](O)C(O)C2O)C(O)C(O)[C@@H]1O (stereo partly drawn) [O-AzTMM-C10, 6-O-(10-azidodecanoyl)-α,α-D-trehalose] | cell-surface fluorescence concentrated at the poles and septa of bacteria | – | – | growth inhibition or altered cell morphology was not oberved
